Earlier results, collected in patent US7074426B2, “Methods and drug delivery systems for the treatment of orofacial diseases” (priority 2002, dated 2006).

System: osteoclast surfaces
Conditions: mice, bone, radioactive [3H]alendronate

uptake on osteoclast surfaces versus osteoblast surfaces: about 10 fold
SMILES: NCCCC(O)(P(=O)(O)O)P(=O)(O)O [alendronate]
